Laboratory results reported in the supplement of paper PMC8256030.
Where “and” joins values, the source holds several entries; their conditions need not be identical. Identical values can stand only once. This is one part of the list. This data set is noisy: repeats of one test often differ as much as different tests do.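 HEK293T cells were given each compound shortly before transfection with a reporter in which red mCherry is followed by the SARS-CoV-2 frameshift element and then GFP in the −1 frame, so GFP appears only after frameshifting.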

The molecules below were run on HEK293T (assay: percent viability (nuclei count) relative to control; higher = more viable cells). Details: 10 µM; 24 h.

SMILES	percent viability
OC(C1=NCCN1)(c1ccc(Cl)cc1)c1ccccn1 (centres undefined) [dazadrol]	143%
Cc1ccc(N(CC2=NCCN2)c2cccc(O)c2)cc1 [phentolamine]	188% and 172%
CCCNC(=O)NS(=O)(=O)c1ccc(Cl)cc1 [Chlorpropamide]	266%
OCCN1CCN(CC/C=C2/c3ccccc3Sc3ccc(Cl)cc32)CC1 [zuclopenthixol]	559%
CCCCCCCCCCCCCCC[C@H](O)[C@@H](N)CO [safingol]	148%
Cc1cc(Nc2ncc(Cl)c(Nc3ccccc3S(=O)(=O)C(C)C)n2)c(OC(C)C)cc1C1CCNCC1 [Ceritinib]	141%
CC(=O)[C@@]1(O)CC[C@H]2[C@@H]3C=C(Cl)C4=CC(=O)CC[C@]4(C)[C@H]3CC[C@@]21C [chlormadinone]	234%
Cc1cccc(C)c1NC(=O)c1cc(S(N)(=O)=O)c(Cl)cc1O [xipamide]	321%
C=C1CCN([C@H](C)[C@](O)(Cn2cncn2)c2ccc(F)cc2F)CC1 [Efinaconazole]	233%
Cc1oc(=O)oc1CN1CCN(c2cc3c(cc2F)c(=O)c(C(=O)O)c2n3C(C)S2)CC1 (centres undefined)	99.9%
CC[C@H]1OC(=O)C[C@@H](O)[C@H](C)[C@@H](O[C@@H]2O[C@H](C)[C@@H](O[C@H]3C[C@@](C)(O)[C@@H](O)[C@H](C)O3)[C@H](N(C)C)[C@H]2O)[C@@H](CC=O)C[C@@H](C)C(=O)/C=C/C(C)=C/[C@@H]1CO[C@@H]1O[C@H](C)[C@@H](O)[C@@H](OC)[C@H]1OC [Tylosin]	164%
COc1ccc2c(O[C@@H]3C[C@H]4C(=O)N[C@]5(C(=O)O)C[C@@H]5/C=C\CCCCC[C@H](NC(=O)OC5CCCC5)C(=O)N4C3)cc(-c3csc(NC(=O)C(C)C)n3)nc2c1C	99.4%
COC(=O)/C=C/C(=O)OC	233%
CO[C@H]1C(=O)[C@]2(C)[C@@H](OC)C[C@H]3OC[C@@]3(OC(C)=O)[C@H]2[C@H](OC(=O)c2ccccc2)[C@]2(O)C[C@H](OC(=O)[C@H](O)[C@@H](NC(=O)OC(C)(C)C)c3ccccc3)C(C)=C1C2(C)C [Jevtana]	58.4%
CN(Cc1cnc2nc(N)nc(N)c2n1)c1ccc(C(=O)NC(CCC(=O)O)C(=O)O)cc1 (centres undefined)	315%
COCCOc1cnc(NS(=O)(=O)c2ccccc2)nc1 [glymidine]	240%
NC(N)=Nc1nc(CSCCN/C=N/S(=O)(=O)c2ccc(Br)cc2)cs1 [ebrotidine]	103%

SMILES	percent viability
O=C(O)CSCC(=O)NC1CCSC1=O (centres undefined) [erdosteine]	181%
O=C(NCCN1CCN(c2ncccn2)CC1)C12CC3CC(CC(C3)C1)C2 [adatanserin]	123%
Oc1ccc(C2CNCCc3c2cc(O)c(O)c3Cl)cc1 (centres undefined)	67.5%
C[C@]12CC[C@@H](O)C[C@@H]1CC[C@H]1[C@@H]3CC[C@H](C(=O)CO)[C@@]3(C)CC(=O)[C@@H]12 [alfadolone]	302%
CCCc1nn(C)c2c(=O)[nH]c(-c3cc(S(=O)(=O)N4CCN(C)CC4)ccc3OCC)nc12 [Sildenafil]	289%
NCCc1cc[nH]n1	121%
N[C@@H](CCC(=O)N[C@@H](CS)C(=O)NCC(=O)O)C(=O)O	59%
c1ccc(Cc2nc3ccccc3[nH]2)cc1 [bendazol]	25.4%
C#Cc1c[nH]c(=O)[nH]c1=O [eniluracil]	354%
O=C(OCC(O)CO)c1ccccc1Nc1ccnc2cc(Cl)ccc12 (centres undefined) [glafenine]	235%
C[N+](C)(C)C[C@H](O)CC(=O)[O-] [levocarnitine]	250%
CC(C)(CO)[C@@H](O)C(=O)NCCC(=O)O [calcium pantothenate]	179%
CN(CCOc1ccc(CC2SC(=O)NC2=O)cc1)c1ccccn1 (centres undefined) [rosiglitazone]	225%
COc1cc2c(cc1Cc1cccc(Cl)c1F)c(=O)c(C(=O)O)cn2[C@H](CO)C(C)C [elvitegravir]	272%
O=C(NCC(O)CO)c1c(I)c(C(=O)NCC(O)CO)c(I)c(N(CCO)C(=O)CO)c1I (centres undefined) [ioversol]	149%
CC(=O)O[C@H]1C[C@@H]2CC[C@@H]3[C@H](CC[C@@]4(C)[C@H]3C[C@H]([N+]3(C)CCCCC3)[C@@H]4OC(C)=O)[C@@]2(C)C[C@@H]1N1CCCCC1 [vecuronium bromide]	168% and 243%
CO[C@H]1C[C@H](O[C@H]2[C@H](C)O[C@@H](O[C@@H]3/C(C)=C/C[C@@H]4C[C@@H](C[C@]5(C=C[C@H](C)[C@@H](C6CCCCC6)O5)O4)OC(=O)[C@@H]4C=C(C)[C@@H](O)[C@H]5OC/C(=C\C=C\[C@@H]3C)[C@]54O)C[C@@H]2OC)O[C@@H](C)[C@@H]1O	132%
